Some of these results come from one statement about several compounds together.
Legend:
Type in all cases: in vivo
[1] = system: Heliothis virescens (Tobacco Budworm); assay: Heliothis virescens egg test on artificial diet; details: 200 ppm (concentration in well 18 ppm), eggs 0-24 h old on artificial diet, 4 days; egg mortality, larval mortality, growth regulation
Method: (§1) This Example illustrates the pesticidal/insecticidal properties of compounds of formula (I). The tests were performed as follows:
(§2) Cotton leaf discs were placed on agar in a 24-well microtiter plate and sprayed with test solutions at an application rate of 200 ppm. After drying, the leaf discs were infested with 5 L1 larvae. The samples were checked for mortality, feeding behavior, and growth regulation 3 days after treatment (DAT). The following compounds gave at least 80% control of Spodoptera littoralis: A2, A6, A8, A9, A10, A11, A13, A15, A19, A20, A22, A25, A27, A29, A31, A33, A35, A41, A50, A55, A60, A65, A73, A88, A92, and A94. Heliothis virescens (Tobacco Budworm): Eggs (0-24 h old) were placed in 24-well microtiter plate on artificial diet and treated with test solutions at an application rate of 200 ppm (concentration in well 18 ppm) by pipetting. After an incubation period of 4 days, samples were checked for egg mortality, larval mortality and growth regulation. The following compounds gave at least 80% control of Heliothis virescens: A2, A3, A4, A5, A6, A7, A9, A10, A11, A13, A15, A19, A20, A22, A25, A26, A27, A28, A29, A31, A32, A33, A35, A38, A40, A41, A43, A46, A55, A59, A60, A65, A69, A70, A71, A73, A74, A75, A77, A79, A80, A82, A86, A88, A89, A90, A92, A94, A96, A98, and A100. Plutella xylostella (Diamond Back Moth): A 24-well microtiter plate (MTP) with artificial diet was treated with test solutions at an application rate of 200 ppm (concentration in well 18 ppm) by pipetting. After drying, the MTP's were infested with L2 larvae (7-12 per well). After an incubation period of 6 days, samples were checked for larval mortality and growth regulation. The following compounds gave at least 80% control of Plutella xylostella: A3, A4, A5, A6, A7, A8, A10, A15, A16, A18, A19, A20, A22, A25, A26, A27, A28, A29, A31, A32, A33, A35, A38, A40, A55, A69, A71, A73, A74, A75, A76, A77, A78, A80, A82, A86, A87, A88, A89, A92, A94, A96, A97, A98, and A99. Diabrotica balteata (Corn Root Worm): A 24-well microtiter plate (MTP) with artificial diet was treated with test solutions at an application rate of 200 ppm (concentration in well 18 ppm) by pipetting. After drying, the MTP's were infested with larvae (L2) (6-10 per well). After an incubation period of 5 days, samples were checked for larval mortality, and growth regulation. The following compounds gave at least 80% control of Diabrotica balteata: A5, A6, A7, A14, A15, A18, A24, A35, A53, A55, A70, A71, A75, A79, A84, A85, A88, A92, A93, A95, A96, A97, A98, A99, A100, A101, A102, A103, and A104. Myzus persicae (Green Peach Aphid): Each well of a 24-well microtiter plate is filled with 0.6 ml 30% sucrose solution, containing 12.5 ppm of the test compounds. The wells are covered with streched parafilm and infested with a mixed population of Myzus persicae. After an incubation period of 6 days, samples are checked for mortality (feeding activity). The following compounds gave at least 80% control of Myzus persicae: A4, A6, A10, A11, A15, A19, A20, A24, A27, A29, A33, A34, A36, A37, A39, A40, A41, A42, A43, A44, A45, A46, A47, A48, A49, A55, A60, and A82. Tetranychus urticae (Two-Spotted Spider Mite): Bean leaf discs on agar in 24-well microtiter plates were sprayed with test solutions at an application rate of 200 ppm. After drying, the leaf discs are infested with mite populations of mixed ages. 8 days later, discs are checked for egg mortality, larval mortality, and adult mortality. The following compounds gave at least 80% control of Tetranychus urticae: A6, A11, A15, A19, A20, A22, A26, A35, A58, and A64.

[2] = system: Plutella xylostella (Diamond Back Moth); assay: Plutella xylostella larvae test on artificial diet; details: 200 ppm (concentration in well 18 ppm), L2 larvae, 6 days, larval mortality, growth regulation
Method: as §1
Cotton leaf discs were placed on agar in a 24-well microtiter plate and sprayed with test solutions at an application rate of 200 ppm. After drying, the leaf discs were infested with 5 L1 larvae. The samples were checked for mortality, feeding behavior, and growth regulation 3 days after treatment (DAT). The following compounds gave at least 80% control of Spodoptera littoralis: A2, A6, A8, A9, A10, A11, A13, A15, A19, A20, A22, A25, A27, A29, A31, A33, A35, A41, A50, A55, A60, A65, A73, A88, A92, and A94. Heliothis virescens (Tobacco Budworm): Eggs (0-24 h old) were placed in 24-well microtiter plate on artificial diet and treated with test solutions at an application rate of 200 ppm (concentration in well 18 ppm) by pipetting. After an incubation period of 4 days, samples were checked for egg mortality, larval mortality and growth regulation. The following compounds gave at least 80% control of Heliothis virescens: A2, A3, A4, A5, A6, A7, A9, A10, A11, A13, A15, A19, A20, A22, A25, A26, A27, A28, A29, A31, A32, A33, A35, A38, A40, A41, A43, A46, A55, A59, A60, A65, A69, A70, A71, A73, A74, A75, A77, A79, A80, A82, A86, A88, A89, A90, A92, A94, A96, A98, and A100. Plutella xylostella (Diamond Back Moth): A 24-well microtiter plate (MTP) with artificial diet was treated with test solutions at an application rate of 200 ppm (concentration in well 18 ppm) by pipetting. After drying, the MTP's were infested with L2 larvae (7-12 per well). After an incubation period of 6 days, samples were checked for larval mortality and growth regulation. The following compounds gave at least 80% control of Plutella xylostella: A3, A4, A5, A6, A7, A8, A10, A15, A16, A18, A19, A20, A22, A25, A26, A27, A28, A29, A31, A32, A33, A35, A38, A40, A55, A69, A71, A73, A74, A75, A76, A77, A78, A80, A82, A86, A87, A88, A89, A92, A94, A96, A97, A98, and A99. […]

[3] = system: Myzus persicae (Green Peach Aphid); assay: Myzus persicae sucrose solution feeding test; details: 12.5 ppm in 30% sucrose solution, mixed population, 6 days; mortality (feeding activity)
Method: as §1, §2

[4] = system: Tetranychus urticae (Two-Spotted Spider Mite); assay: Tetranychus urticae bean leaf disc spray test; details: 200 ppm sprayed on bean leaf discs, mite populations of mixed ages, 8 days; egg, larval, adult mortality
Method: as §1
(§3) Cotton leaf discs were placed on agar in a 24-well microtiter plate and sprayed with test solutions at an application rate of 200 ppm. After drying, the leaf discs were infested with 5 L1 larvae. The samples were checked for mortality, feeding behavior, and growth regulation 3 days after treatment (DAT). The following compounds gave at least 80% control of Spodoptera littoralis: A2, A6, A8, A9, A10, A11, A13, A15, A19, A20, A22, A25, A27, A29, A31, A33, A35, A41, A50, A55, A60, A65, A73, A88, A92, and A94. Heliothis virescens (Tobacco Budworm): Eggs (0-24 h old) were placed in 24-well microtiter plate on artificial diet and treated with test solutions at an application rate of 200 ppm (concentration in well 18 ppm) by pipetting. After an incubation period of 4 days, samples were checked for egg mortality, larval mortality and growth regulation. The following compounds gave at least 80% control of Heliothis virescens: A2, A3, A4, A5, A6, A7, A9, A10, A11, A13, A15, A19, A20, A22, A25, A26, A27, A28, A29, A31, A32, A33, A35, A38, A40, A41, A43, A46, A55, A59, A60, A65, A69, A70, A71, A73, A74, A75, A77, A79, A80, A82, A86, A88, A89, A90, A92, A94, A96, A98, and A100. […]

[5] = system: Spodoptera littoralis (Egyptian Cotton Leafworm); assay: Spodoptera littoralis cotton leaf disc spray test; details: 200 ppm sprayed on cotton leaf discs, L1 larvae, mortality, feeding behavior, growth regulation 3 DAT
Method: as §1
Spodoptera littoralis (Egyptian Cotton Leafworm)
as §3

[6] = system: Diabrotica balteata (Corn Root Worm); assay: Diabrotica balteata larvae test on artificial diet; details: 200 ppm (concentration in well 18 ppm), L2 larvae, 5 days, larval mortality, growth regulation
Method: as §1, §3

| SMILES | control of Heliothis virescens [1] | control of Myzus persicae [3] | other results |
| --- | --- | --- | --- |
| CCc1cc(C(F)(C(F)(F)F)C(F)(F)C(F)(F)F)cc(C)c1NC(=O)c1ccc(C(=O)NCc2ccco2)c(C)c1 (stereo not shown) [A38] | at least 80% |  | control of Plutella xylostella [2]: at least 80% |
| CCc1cc(C(F)(C(F)(F)F)C(F)(F)C(F)(F)F)cc(C)c1NC(=O)c1ccc(C(=O)Nc2ccc(C(C)C)cc2)c(C)c1 (stereo not shown) [A39] |  | at least 80% |  |
| CCc1cc(C(F)(C(F)(F)F)C(F)(F)C(F)(F)F)cc(C)c1NC(=O)c1ccc(C(=O)Nc2ccccc2C)c(C)c1 (stereo not shown) [A40] | at least 80% | at least 80% | control of Plutella xylostella [2]: at least 80% |
| CCc1cc(C(F)(C(F)(F)F)C(F)(F)C(F)(F)F)cc(C)c1NC(=O)c1ccc(C(=O)Nc2ccc3[nH]ncc3c2)c(C)c1 (stereo not shown) [A44] |  | at least 80% |  |
| CCc1cc(C(F)(C(F)(F)F)C(F)(F)C(F)(F)F)cc(C)c1NC(=O)c1ccc(C(=O)Nc2ccc(-n3cccc3)cc2)c(C)c1 (stereo not shown) [A45] |  | at least 80% |  |
| CCc1cc(C(F)(C(F)(F)F)C(F)(F)C(F)(F)F)cc(C)c1NC(=O)c1ccc(C(=O)Nc2ccc(N3CCCCC3)cc2)c(C)c1 (stereo not shown) [A46] | at least 80% | at least 80% |  |
| CCc1cc(C(F)(C(F)(F)F)C(F)(F)C(F)(F)F)cc(C)c1NC(=O)c1ccc(C(=O)Nc2cc(-c3ccccc3)ccc2OC)c(C)c1 (stereo not shown) [A47] |  | at least 80% |  |
| CCc1cc(C(F)(C(F)(F)F)C(F)(F)C(F)(F)F)cc(C)c1NC(=O)c1ccc(C(=O)Nc2ccc3ccccc3n2)c(C)c1 (stereo not shown) [A58] |  |  | control of Tetranychus urticae [4]: at least 80% |
| CCc1cc(C(F)(C(F)(F)F)C(F)(F)C(F)(F)F)cc(C)c1NC(=O)c1ccc(C(=O)Nc2c(-c3ccccc3)noc2C)c(C)c1 (stereo not shown) [A59] | at least 80% |  |  |
| CCc1cc(C(F)(C(F)(F)F)C(F)(F)C(F)(F)F)cc(C)c1NC(=O)c1ccc(C(=O)Nc2ncnc3[nH]cnc23)c(C)c1 (stereo not shown) [A60] | at least 80% | at least 80% | control of Spodoptera littoralis [5]: at least 80% |
| CCc1cc(C(F)(C(F)(F)F)C(F)(F)C(F)(F)F)cc(C)c1NC(=O)c1ccc(C(=O)NCc2cccc3ccccc23)c(C)c1 (stereo not shown) [A98] | at least 80% |  | control of Diabrotica balteata [6]: at least 80%; control of Plutella xylostella [2]: at least 80% |

From patent publication US8658698B2, “Insecticidal compounds” (Syngenta Crop Protection, LLC, priority 2008, dated 2014)
